Laboratory results: paper PMC9513094
These are yes or no findings as the source states them, for the method shown. Binding seen in cells or lysates may run through a third protein. Binding calls can cover weak binding; strength is not graded here. For some assays here: Sequences can lack the tags named with a protein. Blank lines part the entries; values can stand above or below the binder they belong to.

Legend:
GFP-TRB1 (Arabidopsis) = experiment: co-IP; GFP-Trap_A beads on plant lysate; 10 mM Tris-HCl pH 7.5, 150 mM NaCl, 0.5 mM EDTA, 0.5% Triton-X100; blots with anti-RFP and anti-GFP
nYFP-TRB1 (Arabidopsis) = experiment: split reporter; split-YFP BiFC, nYFP and cYFP fusions co-expressed in N. benthamiana, imaged two days after infiltration

binding (GFP-TRB1 (Arabidopsis)): binds
B1: VAP27-1-RFP (protein, UniProt Q8VZ95 1-256)
chain: MSNIDLIGMSNRDLIGMSNSELLTVEPLDLQFPFELKKQISCSLYLTNKTDNNVAFKVKTTNPKKYCVRPNTGVVLPRSTCEVLVTMQAQKEAPSDMQCKDKFLLQGVIASPGVTAKEVTPEMFSKEAGHRVEETKLRVTYVAPPRPPSPVHEGSEEGSSPRASVSDNGHGSEFSFERFIVDNKAGHQENTSEARALITKLTEEKQSAIQLNNRLQRELDQLRRESKKSQSGGIPFMYVLLVGLIGLILGYIMKRT

binding (nYFP-TRB1 (Arabidopsis)): binds
B2: cYFP-VAP27-1 (protein, UniProt Q8VZ95 1-256)
chain: B1 chain
